Measurements taken from PMC13492119.
Results are given in words; binding and its absence hold for the method and conditions named. Binding seen in cells or lysates may run through a third protein. Here binding means that the protein was enriched with, or labelled near, the bait; the list need not be complete. Tags and fused reporters may be left off the sequences shown.

Chains of the proteins cited; added tags and fusions are not shown.
UniProt P04147: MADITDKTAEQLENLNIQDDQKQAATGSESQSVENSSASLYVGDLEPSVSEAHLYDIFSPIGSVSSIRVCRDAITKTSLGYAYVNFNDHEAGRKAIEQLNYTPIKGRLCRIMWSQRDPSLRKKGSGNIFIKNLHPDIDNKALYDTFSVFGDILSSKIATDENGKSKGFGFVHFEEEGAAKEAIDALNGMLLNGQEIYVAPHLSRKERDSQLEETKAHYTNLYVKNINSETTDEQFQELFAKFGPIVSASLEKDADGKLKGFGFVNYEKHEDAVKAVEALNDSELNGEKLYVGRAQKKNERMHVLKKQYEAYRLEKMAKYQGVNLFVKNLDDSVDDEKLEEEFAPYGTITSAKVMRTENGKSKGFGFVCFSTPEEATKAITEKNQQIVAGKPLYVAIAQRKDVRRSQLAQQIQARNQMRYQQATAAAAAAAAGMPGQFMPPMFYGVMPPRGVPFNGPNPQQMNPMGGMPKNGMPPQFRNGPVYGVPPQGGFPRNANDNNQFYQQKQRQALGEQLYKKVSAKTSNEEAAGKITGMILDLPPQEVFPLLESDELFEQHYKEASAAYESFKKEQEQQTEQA

T1: Puf3-Tap-tag (S. cerevisiae) (UniProt Q07807)
T1 sequence: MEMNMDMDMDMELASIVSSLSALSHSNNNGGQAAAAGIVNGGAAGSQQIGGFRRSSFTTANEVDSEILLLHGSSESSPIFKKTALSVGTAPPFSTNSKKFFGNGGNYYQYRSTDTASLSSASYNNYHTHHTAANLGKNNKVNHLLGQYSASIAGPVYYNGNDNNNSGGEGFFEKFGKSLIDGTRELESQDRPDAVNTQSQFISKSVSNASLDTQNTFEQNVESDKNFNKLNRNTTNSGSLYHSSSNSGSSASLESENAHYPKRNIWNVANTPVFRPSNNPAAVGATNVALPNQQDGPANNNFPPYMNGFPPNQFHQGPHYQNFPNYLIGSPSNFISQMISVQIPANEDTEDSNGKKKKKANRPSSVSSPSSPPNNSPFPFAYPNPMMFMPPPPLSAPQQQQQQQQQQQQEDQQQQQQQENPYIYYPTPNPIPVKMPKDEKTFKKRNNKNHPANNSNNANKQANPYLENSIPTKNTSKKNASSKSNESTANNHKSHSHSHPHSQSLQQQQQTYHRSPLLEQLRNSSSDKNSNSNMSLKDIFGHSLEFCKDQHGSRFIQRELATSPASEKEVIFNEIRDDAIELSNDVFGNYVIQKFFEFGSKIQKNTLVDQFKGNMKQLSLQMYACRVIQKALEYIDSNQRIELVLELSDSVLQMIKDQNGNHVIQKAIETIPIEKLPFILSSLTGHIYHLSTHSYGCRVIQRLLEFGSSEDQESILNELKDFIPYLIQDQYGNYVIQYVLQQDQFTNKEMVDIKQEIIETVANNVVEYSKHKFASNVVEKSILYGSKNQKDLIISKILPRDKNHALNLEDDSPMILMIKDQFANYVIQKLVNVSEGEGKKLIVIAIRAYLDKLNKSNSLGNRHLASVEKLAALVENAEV


Tests used:
[1] = target: T1, Puf3-Tap-tag (S. cerevisiae); experiment: affinity purification with mass spectrometry; Puf3-TAP tagged in the not4Δ cells (condition 2); wild type and not4Δ cells mixed and broken together; IgG coupled magnetic beads, 2 h at 4°C, 20 mM Hepes pH 7.4, 100 mM KOAc, 0.5% Triton X-100 washes; ribonuclease inhibitor in the lysis buffer; compared with untagged control and with condition 1
[2] = target: T1, Puf3-Tap-tag (S. cerevisiae); experiment: affinity purification with mass spectrometry; Puf3-TAP tagged in the wild type cells (condition 1); wild type and not4Δ cells mixed and broken together; IgG coupled magnetic beads, 2 h at 4°C, 20 mM Hepes pH 7.4, 100 mM KOAc, 0.5% Triton X-100 washes; ribonuclease inhibitor in the lysis buffer; compared with untagged control and with condition 2

| binding [1] | binding [2] | Molecule |
| --- | --- | --- |
| binds | binds | poly(A) binding protein Pab1 (from UniProt P04147 1-577) |
| binds | binds | Hrr25 kinase (enzyme, UniProt P29295 1-494) MDLRVGRKFRIGRKIGSGSFGDIYHGTNLISGEEVAIKLESIRSRHPQLDYESRVYRYLSGGVGIPFIRWFGREGEYNAMVIDLLGPSLEDLFNYCHRRFSFKTVIMLALQMFCRIQYIHGRSFIHRDIKPDNFLMGVGRRGSTVHVIDFGLSKKYRDFNTHRHIPYRENKSLTGTARYASVNTHLGIEQSRRDDLESLGYVLIYFCKGSLPWQGLKATTKKQKYDRIMEKKLNVSVETLCSGLPLEFQEYMAYCKNLKFDEKPDYLFLARLFKDLSIKLEYHNDHLFDWTMLRYTKAMVEKQRDLLIEKGDLNANSNAASASNSTDNKSETFNKIKLLAMKKFPTHFHYYKNEDKHNPSPEEIKQQTILNNNAASSLPEELLNALDKGMENLRQQQPQQQVQSSQPQPQPQQLQQQPNGQRPNYYPEPLLQQQQRDSQEQQQQVPMATTRATQYPPQINSNNFNTNQASVPPQMRSNPQQPPQDKPAGQSIWL |
